{"source": "PubChem BioAssay AID1159578 (Peter MacCallum Cancer Centre, 2015)", "purpose": "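Genome-wide hunt for genes controlling movement of lymphatic endothelial cells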 (primary screen)", "cells": "human lymphatic endothelial cells", "reagents": "siRNA pool against human genes, 40 nM", "duration": "48 h after transfection", "measured": "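High-content imaging of dye-stained cells in a scratch assay measures filled wound area and nuclei per well; duplicate means given as ratio to mock and robust z-score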", "reading the numbers": "migration robust z-score: higher = faster migration into the scratch; nuclei per well: higher = more cells in the well", "active means": "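Migration changed when robust z exceeds 2 or falls below -2 and mean nuclei number is at least 3300; otherwise not called changed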", "calls": "active = migration changed; inactive = no migration change, or too few cells", "note": "The deposit covers about 18,000 reagents; shown is a part drawn at random. Over the whole deposit, about 1,030 (5.7%) got an active call. 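Inactive calls also include pools with fewer than 3300 nuclei, whose migration was not assessed.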 Raw values vary from plate to plate and are shown uncorrected. Further read-outs or replicates are left out here. Reagent sequences are not shown."}
{"Target gene": "IGSF21", "migration robust z-score": 0.15, "nuclei per well, duplicate mean": 6346, "Call": "inactive"}
{"Target gene": "SLC5A9", "migration robust z-score": 1.02, "nuclei per well, duplicate mean": 5860, "Call": "inactive"}
{"Target gene": "SEPTIN14", "migration robust z-score": -0.06, "nuclei per well, duplicate mean": 5944, "Call": "inactive"}
{"Target gene": "TPR", "migration robust z-score": -0.94, "nuclei per well, duplicate mean": 6322, "Call": "inactive"}
{"Target gene": "ST8SIA6", "migration robust z-score": -0.02, "nuclei per well, duplicate mean": 5062, "Call": "inactive"}
{"Target gene": "CEP290", "migration robust z-score": 1.69, "nuclei per well, duplicate mean": 6856, "Call": "inactive"}
{"Target gene": "SRD5A2", "migration robust z-score": -0.96, "nuclei per well, duplicate mean": 3404, "Call": "inactive"}
{"Target gene": "DPF3", "migration robust z-score": 0.62, "nuclei per well, duplicate mean": 4672, "Call": "inactive"}
{"Target gene": "PICALM", "migration robust z-score": 0.23, "nuclei per well, duplicate mean": 6210, "Call": "inactive"}

The list goes on (3 carried over from the part before).
{"Target gene": "SRD5A2", "migration robust z-score": -0.96, "nuclei per well, duplicate mean": 3404, "Call": "inactive"}
{"Target gene": "DPF3", "migration robust z-score": 0.62, "nuclei per well, duplicate mean": 4672, "Call": "inactive"}
{"Target gene": "PICALM", "migration robust z-score": 0.23, "nuclei per well, duplicate mean": 6210, "Call": "inactive"}
{"Target gene": "ZNF638", "migration robust z-score": -0.2, "nuclei per well, duplicate mean": 6397, "Call": "inactive"}
{"Target gene": "CLDN18", "migration robust z-score": -0.26, "nuclei per well, duplicate mean": 5259, "Call": "inactive"}
{"Target gene": "GDI1", "migration robust z-score": 0.52, "nuclei per well, duplicate mean": 5084, "Call": "inactive"}
{"Target gene": "C6orf15", "migration robust z-score": -1.28, "nuclei per well, duplicate mean": 5795, "Call": "inactive"}
{"Target gene": "AKT3", "migration robust z-score": -3.25, "nuclei per well, duplicate mean": 4096, "Call": "active"}
{"Target gene": "RAPGEFL1", "migration robust z-score": 1.58, "nuclei per well, duplicate mean": 5516, "Call": "inactive"}
{"Target gene": "GRPR", "migration robust z-score": -0.7, "nuclei per well, duplicate mean": 6327, "Call": "inactive"}
{"Target gene": "MIX23", "migration robust z-score": 1.25, "nuclei per well, duplicate mean": 5734, "Call": "inactive"}
{"Target gene": "ITSN1", "migration robust z-score": -0.08, "nuclei per well, duplicate mean": 5810, "Call": "inactive"}
{"Target gene": "HAGH", "migration robust z-score": -1.04, "nuclei per well, duplicate mean": 4063, "Call": "inactive"}
{"Target gene": "YWHAE", "migration robust z-score": 0.52, "nuclei per well, duplicate mean": 5048, "Call": "inactive"}
{"Target gene": "PPIE", "migration robust z-score": 0.07, "nuclei per well, duplicate mean": 6206, "Call": "inactive"}
